Data reported in the supplement of paper PMC12593923.

Columns and labels:
Experiment in all cases: drug sensitivity score (DSS2, cytotoxicity, CellTox Green); higher = more cytotoxic / more sensitive; extreme values may be limits of the assay
Details in all cases: 72 h; doses 0.5, 1, 5 µM
OVCAR4 = test system: OVCAR4
OVCAR3 = test system: OVCAR3
Kuramochi = test system: Kuramochi

Row | Structure (SMILES) | drug sensitivity score (OVCAR4) [DSS] | drug sensitivity score (OVCAR3) [DSS] | drug sensitivity score (Kuramochi) [DSS]
1 | O=C(Nc1cnn2ccc(N3CCC[C@@H]3c3cc(F)ccc3F)nc12)N1CC[C@H](O)C1 [Larotrectinib] | 0 | 0 | 0
2 | NC(=O)c1cnccn1 [Pyrazinamide] | 0 | 0 | 0
3 | CC1=Nc2ccc(Cl)cc2S(=O)(=O)N1 [Diazoxide] | 0 | 0 | 0
4 | CC(C)Cn1cnc2c(N)nc3ccccc3c21 [Imiquimod] | 0 | 0 | 0
5 | CCOc1cc(C(C)(C)C)ccc1C1=N[C@@](C)(c2ccc(Cl)cc2)[C@@](C)(c2ccc(Cl)cc2)N1C(=O)N1CCN(CC(=O)N2CCOCC2)CC1 | 0 | 0 | 0
6 | Nc1nc2[nH]cc(CCc3ccc(C(=O)N[C@@H](CCC(=O)O)C(=O)O)cc3)c2c(=O)[nH]1 [Pemetrexed (disodium)] | 0.4 | 0.6 | 0
7 | O=c1cc(-c2ccccc2)oc2cc(O)c(O)c(O)c12 [Baicalein] | 0 | 0 | 0
8 | CC/C(=C(\c1ccccc1)c1ccc(OCCN(C)C)cc1)c1ccccc1 [Tamoxifen (Citrate)] | 0.1 | 0 | 0
9 | Cn1ncnc1[C@H]1c2n[nH]c(=O)c3cc(F)cc(c23)N[C@@H]1c1ccc(F)cc1 [Talazoparib] | 0 | 0 | 0
10 | O=C(O)Cc1ccccc1Nc1c(Cl)cccc1Cl [Diclofenac (Sodium)] | 0 | 0 | 0
11 | Nc1ncn([C@@H]2O[C@H](CO)[C@@H](O)[C@H]2O)c(=O)n1 [5-Azacytidine] | 0 | 0 | 0
12 | CCc1ccc(CCOc2ccc(CC3SC(=O)NC3=O)cc2)nc1 (configuration not stated) [Pioglitazone (hydrochloride)] | 0 | 0 | 0
13 | N#CCCCSC(=N)N [Kevetrin (hydrochloride)] | 0 | 0 | 0
14 | O=C(Nc1cnn2ccc(N3CCC[C@@H]3c3cc(F)ccc3F)nc12)N1CC[C@H](O)C1 [Larotrectinib sulfate] | 0 | 0 | 0
15 | Cc1ccc(Nc2nccc(N(C)c3ccc4c(C)n(C)nc4c3)n2)cc1S(N)(=O)=O [Pazopanib] | 0 | 0 | 0
16 | CCCCC[C@H](O)/C=C/[C@@H]1[C@@H](C/C=C\CCCC(=O)O)[C@@H](O)C[C@H]1O [Dinoprost (tromethamine salt)] | 0 | 0 | 0
17 | N=C(N)NC(=O)c1nc(Cl)c(N)nc1N [Amiloride (hydrochloride)] | 0 | 0 | 0
18 | C[C@@H]1CC(=O)NN=C1c1ccc(NN=C(C#N)C#N)cc1 [Levosimendan] | 0 | 0 | 0
19 | C/C=C1\[C@H]2C=C(C)C[C@]1(N)c1ccc(=O)[nH]c1C2 [(-)-Huperzine A] | 0 | 0 | 0
20 | Cc1ccccc1C(=O)Nc1ccc(C(=O)N2CCCC(O)c3cc(Cl)ccc32)c(C)c1 (configuration not stated) [Tolvaptan] | 0 | 0 | 0
21 | CC(C)(CO)[C@@H](O)C(=O)NCCC(=O)O [D-Pantothenic acid (hemicalcium salt)] | 0 | 0 | 0
22 | CN(C)/N=N/c1[nH]cnc1C(N)=O [Dacarbazine] | 0 | 0.2 | 0
23 | O=S(=O)(c1cccc2cnccc12)N1CCCNCC1 [Fasudil (Hydrochloride)] | 0 | 0 | 0
24 | Cn1c(=O)cc(N2CCC[C@@H](N)C2)n(Cc2ccccc2C#N)c1=O [Alogliptin (Benzoate)] | 0 | 0 | 0
25 | Cc1c(C(=O)Nc2ccc(N3C[C@@H](C)O[C@@H](C)C3)nc2)cccc1-c1ccc(OC(F)(F)F)cc1 [Sonidegib (diphosphate)] | 0 | 0 | 0

Some entries already given with just drug sensitivity score (OVCAR3) [DSS]:

| Row | Structure (SMILES) | drug sensitivity score (OVCAR3) [DSS] |
| --- | --- | --- |
| 16 | CCCCC[C@H](O)/C=C/[C@@H]1[C@@H](C/C=C\CCCC(=O)O)[C@@H](O)C[C@H]1O [Dinoprost (tromethamine salt)] | 0 |
| 17 | N=C(N)NC(=O)c1nc(Cl)c(N)nc1N [Amiloride (hydrochloride)] | 0 |
| 18 | C[C@@H]1CC(=O)NN=C1c1ccc(NN=C(C#N)C#N)cc1 [Levosimendan] | 0 |

Further records follow.

Row | Structure (SMILES) | drug sensitivity score (OVCAR4) [DSS] | drug sensitivity score (OVCAR3) [DSS] | drug sensitivity score (Kuramochi) [DSS]
26 | O=[N+]([O-])c1ccc(O)c2ncccc12 [Nitroxoline] | 0.1 | 0 | 0
27 | Cc1nc(Nc2ncc(C(=O)Nc3c(C)cccc3Cl)s2)cc(N2CCN(CCO)CC2)n1 [Dasatinib (hydrochloride)] | 0 | 0.9 | 1.5
28 | C#Cc1cccc(Nc2ncnc3cc(OCCOC)c(OCCOC)cc23)c1 [Erlotinib] | 0 | 0 | 0
29 | O=C1CCC(N2C(=O)c3ccccc3C2=O)C(=O)N1 (configuration not stated) [Thalidomide] | 0 | 3.4 | 2.5
30 | O=C(O)CC(O)(CC(=O)O)C(=O)O [Citric acid] | 0 | 0 | 0
31 | C[C@@H]1O[C@@H](OC[C@H]2O[C@@H](Oc3c(-c4ccc(O)c(O)c4)oc4cc(O)cc(O)c4c3=O)[C@H](O)[C@@H](O)[C@@H]2O)[C@H](O)[C@H](O)[C@H]1O [Rutin] | 0 | 0 | 0
32 | CCOC(=O)[C@H](CCc1ccccc1)N[C@@H](C)C(=O)N1Cc2cc(OC)c(OC)cc2C[C@H]1C(=O)O [Moexipril (hydrochloride)] | 0 | 0 | 0
33 | Cc1cc(=O)[nH]c(=S)[nH]1 [Methylthiouracil] | 0 | 0 | 0
34 | O=C1Nc2ccc(Cl)cc2[C@@](C#CC2CC2)(C(F)(F)F)O1 [Efavirenz] | 0 | 0 | 0
35 | COc1ccc2[nH]cc(CCNC(C)=O)c2c1 [Melatonin] | 0 | 0 | 0
36 | C[C@]12CC[C@@H]3c4ccc(OS(=O)(=O)O)cc4CC[C@H]3[C@@H]1CCC2=O [Estropipate] | 0 | 0 | 0
37 | O=C(CCCCCCC(=O)Nc1ccccc1)NO [Vorinostat] | 0 | 0.7 | 0.9
38 | CNC(=O)c1cc(Oc2ccc(NC(=O)Nc3ccc(Cl)c(C(F)(F)F)c3)c(F)c2)ccn1 [Regorafenib (monohydrate)] | 0 | 0 | 0
39 | Cc1ccc(C(=O)Cn2c3c(sc2=N)CCCC3)cc1 [Pifithrin-α (hydrobromide)] | 0 | 0 | 0
40 | CC(C)[C@]12O[C@H]1[C@@H]1O[C@@]13[C@@]1(C)CCC4=C(COC4=O)[C@@H]1C[C@@H]1O[C@@]13C2=O [Triptonide] | 2.1 | 0 | 0.1
41 | Cc1nc(=O)c2cc(CN(C)c3ccc(C(=O)N[C@@H](CCC(=O)O)C(=O)O)s3)ccc2[nH]1 [Raltitrexed] | 0 | 0 | 0
42 | O=C1CCC[C@@H]2[C@H]3CCCN4CCC[C@H](CN12)[C@@H]34 [Sophoridine] | 0 | 0 | 0
43 | NCCS [Cysteamine hydrochloride] | 1.8 | 0 | 0
44 | CCOc1cc(C(C)(C)C)ccc1C1=N[C@@](C)(c2ccc(Cl)cc2)[C@@](C)(c2ccc(Cl)cc2)N1C(=O)N1CCN(CC(=O)N2CCOCC2)CC1 [P53 and MDM2 proteins-interaction-inhibitor (chiral)] | 0 | 0.9 | 0
45 | COc1ccc2[nH]c([S+]([O-])Cc3ncc(C)c(OC)c3C)nc2c1 (configuration not stated) [Omeprazole] | 0 | 0 | 0
46 | CN1CCN(c2ccc(C(=O)Nc3n[nH]c4ccc(Cc5cc(F)cc(F)c5)cc34)c(NC3CCOCC3)c2)CC1 [Entrectinib] | 0 | 0.1 | 0.3
47 | CC(C)n1c(/C=C/C(O)CC(O)CC(=O)O)c(-c2ccc(F)cc2)c2ccccc21 (configuration not stated) [Fluvastatin (sodium)] | 0 | 0 | 0
48 | Cc1ccc(NC(=O)C2(c3ccc4c(c3)OC(F)(F)O4)CC2)nc1-c1cccc(C(=O)O)c1 [Lumacaftor] | 0 | 0 | 0
49 | COC(=O)C1=C(C)NC(C)=C(C(=O)OC)C1c1ccccc1[N+](=O)[O-] [Nifedipine] | 0 | 0 | 0

Structures can show the parent of a compound that is named as a salt. Some well-known active drugs show little effect in this data set, so a weak value is uncertain.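 The three lines are all high-grade serous ovarian cancer cells with differing chemosensitivity; OVCAR3 is described as chemosensitive. Toxicity was normalized between DMSO vehicle wells and fully lysed wells, the score comes from a fitted multi-dose response curve, and a score above 5 was counted as drug sensitivity.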
